Structures can show the parent of a compound that is named as a salt. For some assays here: At least one structure is not confirmed: it was looked up by name or label, or the drawing left a doubt. Some entries share one result that the patent states for a list of compounds.
How the values were obtained:
[1] = system: influx of neutrophils to the lung in LPS-challenged rats; test: Rat LPS neutrophilia model; type: in vivo; conditions: intratracheal, LPS aerosol 100 ug/ml, in at least one of the range of conditions tested, significance p<0.05
Protocol: Rat LPS Neutrophilia Model
The effect of compounds on the influx of neutrophils to the lung in LPS-challenged rats is evaluated as follows. The test compound is suspended in one of the following solutions: 0.5% tween 80/PBS, 0.5% tween 80/saline, 10% EtOH/saline (with pH adjusted to 2.0, or 8.0 with HCl, or unadjusted), Saline (pH 2.0, 6.5 or 8.0, 0.5% Tragacanth, 1% DMSO/20% Encapsin/Saline, or acidified 5% Tragacanth. The suspension process may be aided by the use of a glass homogenizer. For intratracheal administration, the animals are anesthetized with inhaled isoflurane and placed in a supine position, the trachea is intubated with a steel gavage needle (1.5 inch, 22 gauge, small ball) or a Penn-Century Microsprayer Aerosolizer (model IA-1B) and 200 ul of dosing solution is delivered. The animals are visually monitored during the recovery process, which typically occurs within two minutes. It is noted that the test compounds may be alternatively administered via the microsprayer in a dry powder blend with a suitable excipient, such as lactose.
Rats treated with compound or vehicle (15 min-24 hours pretreatment) are exposed to an LPS aerosol (100 ug/ml) for 15 min. […] The harvested cells are stained (Diffquick) and counted to determine total and differential cell data. […] Inhibition of neutrophil levels relative to no compound controls is calculated based on the differential counts. […]

Amino acid sequences for entries named in this document (tags omitted).
UniProt Q16539, whole entry: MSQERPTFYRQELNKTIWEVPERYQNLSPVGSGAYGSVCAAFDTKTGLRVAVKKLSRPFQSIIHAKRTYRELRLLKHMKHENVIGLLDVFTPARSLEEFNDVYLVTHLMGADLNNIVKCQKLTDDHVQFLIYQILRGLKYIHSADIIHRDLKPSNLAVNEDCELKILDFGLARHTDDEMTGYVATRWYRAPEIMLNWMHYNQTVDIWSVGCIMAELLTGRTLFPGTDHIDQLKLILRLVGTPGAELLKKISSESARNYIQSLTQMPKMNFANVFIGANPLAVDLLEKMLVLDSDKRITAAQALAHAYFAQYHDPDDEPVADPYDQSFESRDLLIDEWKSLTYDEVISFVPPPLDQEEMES

[2] = target: T1, Recombinant human p38α (Homo sapiens, UniProt Q16539); test: Time-resolved fluorescence resonance energy transfer (TR-FRET) kinase assay (standard or low volume); type: biochemical
T1 construct: His; made in house
Protocol: Time-Resolved Fluorescence Resonance Energy Transfer Kinase Standard Assay
(§1) Recombinant human p38α was expressed as a His-tagged protein. To activate this protein, 3 μM unactivated p38α was incubated in 200 mM Hepes pH 7.4, 625 mM NaCl, 1 mM DTT with 27 nM active MKK6 (Upstate), 1 mM ATP and 10 mM MgCl2 The activity of the MKK6-activated p38α was assessed using a time-resolved fluorescence resonance energy transfer (TR-FRET) assay.
Biotinylated-GST-ATF2 (residues 19-96, 400 nM final), ATP ([…]) and MgCl2 (5 mM final) in assay buffer (40 mM HEPES pH 7.4, 1 mM DTT) were added to wells containing 1 ul of various concentrations of compound or DMSO vehicle (3% final) in NUNC 384 well black plate. […] The degree of phosphorylation of GST-ATF2 was measured using a Packard Discovery plate reader (Perkin-Elmer Life Sciences, Pangbourne, UK) as a ratio of specific 665 nm energy transfer signal to reference europium 620 nm signal.
Time-Resolved Fluorescence Resonance Energy Transfer Kinase Low Volume Assay
as §1, with “pH7.4,” for “pH 7.4,”, “assay. […]” for “assay.”

Compound	inhibition of neutrophilia (neutrophil levels in airway lavage relative to no compound controls) [1]	pIC50, TR-FRET kinase assay, broad range of data upon multiple runs [2]
Cc1ccc(C(=O)NC(C)C)cc1-c1nc(N(C)CCN(C)C)nc2c1ccc(=O)n2-c1c(F)cccc1F [Example 100, 3-{8-(2,6-difluorophenyl)-2-[[2-(dimethylamino)ethyl](methyl)amino]-7-oxo-7,8-dihydropyrido[2,3-d]pyrimidin-4-yl}-4-methyl-N-(1-methylethyl)benzamide]	statistically nonsignificant inhibition of neutrophilia	
Cc1ccc(C(=O)O)cc1-c1nc(-n2ccnc2CN)nc2c1ccc(=O)n2-c1c(F)cccc1F [Example 97(b), 3-[2-[2-(aminomethyl)-1H-imidazol-1-yl]-8-(2,6-difluorophenyl)-7-oxo-7,8-dihydropyrido[2,3-d]pyrimidin-4-yl]-4-methylbenzoic acid trifluoroacetate]		≤ 7.4 to less than 4.6

Reference: patent US8354416B2 (Glaxo Group Limited, priority 2005, dated 2013)
